From the supplement of paper PMC11348887
Structures can show the parent of a compound that is named as a salt. This is one part of the list. Most values lie at the level of the controls, where differences are scatter.

Each molecule was assayed on hPSC-derived cortical neurons (WA09) (assay: KCl-induced FOS+/EGR-1+ double-positive nuclei fraction z-score (KCl minus unstimulated); higher = stronger activity-induced IEG response). Details: 5 µM; treatment: days 7-14 after plating, readout day 21.

SMILES	KCl-induced FOS+/EGR-1+ double-positive nuclei fraction z-score
CCN1CCC[C@H]1CNC(=O)c1cc(S(N)(=O)=O)ccc1OC [Levosulpiride]	1.45
CS(=O)(=O)c1ccc(C2=C(c3ccccc3)C(=O)OC2)cc1 [Rofecoxib]	1.44
O=C1Nc2ccc(Cl)cc2[C@@](C#CC2CC2)(C(F)(F)F)O1 [Efavirenz]	-0.763
CC(=O)O[C@]1(C(C)=O)CC[C@H]2[C@@H]3C=C(Cl)C4=CC(=O)[C@@H]5C[C@@H]5[C@]4(C)[C@H]3CC[C@@]21C [Cyproterone Acetate]	-0.852
CN(C)[C@@H]1C(O)=C(C(N)=O)C(=O)[C@@]2(O)C(O)=C3C(=O)c4c(O)cccc4[C@@](C)(O)[C@H]3C[C@@H]12 [Tetracycline HCl]	1.9
C=C[C@](C)(O)CC[C@@H]1[C@@]2(C)CCCC(C)(C)[C@@H]2CC[C@@]1(C)O [Sclareol]	-0.498
O=C1CN(/N=C/c2ccc(-c3ccc([N+](=O)[O-])cc3)o2)C(=O)N1 [Dantrolene sodium hemiheptahydrate]	-0.981
CC(C)N(CCCNC(=O)Nc1ccc(C(C)(C)C)cc1)C[C@H]1O[C@@H](n2ccc3c(N)ncnc32)[C@H](O)[C@@H]1O	0.613
CC(C)c1cc(-c2n[nH]c(=O)n2-c2ccc3c(ccn3C)c2)c(O)cc1O [Ganetespib (STA-9090)]	-0.565
CN(C)[C@@H](CCOc1cccc2ccccc12)c1ccccc1 [Dapoxetine HCl]	-0.948
Cc1ccc(Sc2cncc3sc(C(N)=O)cc23)cc1	-1.14
NC(N)=NCCCC(N)C(=O)NCC(=O)NC(CC(=O)O)C(=O)O (stereo not drawn) [RGD (Arg-Gly-Asp) Peptides]	-0.217

Quoted from the listing:
Value for C=C[C@](C)(O)CC[C@@H]1[C@@]2(C)CCCC(C)(C)[C@@H]2CC[C@@]1(C)O [Sclareol] under KCl-induced FOS+/EGR-1+ double-positive nuclei fraction z-score: -0.498
Value for O=C1Nc2ccc(Cl)cc2[C@@](C#CC2CC2)(C(F)(F)F)O1 [Efavirenz] under KCl-induced FOS+/EGR-1+ double-positive nuclei fraction z-score: -0.763
